± gives the standard deviation of the averaged measurements. The entries are a selection whose mix differs from that of the whole data set.
Compound: Nc1ncnc2c1ncn2[C@@H]1O[C@H](COP(=O)(O)OP(=O)(O)NP(=O)(O)O)[C@@H](O)[C@H]1O [adenylyl imidodiphosphate]
Assay: NP40-soluble protein abundance relative to vehicle (solubility fold change) (ratio); higher = more soluble protein in presence of AMP-PNP
Procedure, shortened: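 Crude Jurkat lysate, prepared by Dounce homogenisation, was exposed to eight concentrations from 0.1 to 10 mM for 10 min at room temperature and then 3 min at 37 °C. Solubilisation used 0.8% NP40 with benzonase for 60 min at 4 °C, followed by ultracentrifugation and TMT labelling of the supernatant for LC-MS/MS. After vsn normalisation of intensities, each value is the fold change against the detergent-processed vehicle within each replicate, across three independent experiments.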

By UniProt entry, the sequences of proteins in these tests, tags left out. Where a name states a change or a piece, a line headed by the entry shows the natural chain unless it says otherwise.
UniProt Q6NS38: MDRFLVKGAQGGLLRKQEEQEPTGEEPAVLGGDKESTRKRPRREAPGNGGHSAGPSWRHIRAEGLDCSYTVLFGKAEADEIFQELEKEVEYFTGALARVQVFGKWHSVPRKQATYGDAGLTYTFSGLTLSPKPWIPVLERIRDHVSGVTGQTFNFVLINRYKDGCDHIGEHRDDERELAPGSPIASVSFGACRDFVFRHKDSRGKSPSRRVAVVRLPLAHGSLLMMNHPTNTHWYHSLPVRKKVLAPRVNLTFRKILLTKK
UniProt Q659A1: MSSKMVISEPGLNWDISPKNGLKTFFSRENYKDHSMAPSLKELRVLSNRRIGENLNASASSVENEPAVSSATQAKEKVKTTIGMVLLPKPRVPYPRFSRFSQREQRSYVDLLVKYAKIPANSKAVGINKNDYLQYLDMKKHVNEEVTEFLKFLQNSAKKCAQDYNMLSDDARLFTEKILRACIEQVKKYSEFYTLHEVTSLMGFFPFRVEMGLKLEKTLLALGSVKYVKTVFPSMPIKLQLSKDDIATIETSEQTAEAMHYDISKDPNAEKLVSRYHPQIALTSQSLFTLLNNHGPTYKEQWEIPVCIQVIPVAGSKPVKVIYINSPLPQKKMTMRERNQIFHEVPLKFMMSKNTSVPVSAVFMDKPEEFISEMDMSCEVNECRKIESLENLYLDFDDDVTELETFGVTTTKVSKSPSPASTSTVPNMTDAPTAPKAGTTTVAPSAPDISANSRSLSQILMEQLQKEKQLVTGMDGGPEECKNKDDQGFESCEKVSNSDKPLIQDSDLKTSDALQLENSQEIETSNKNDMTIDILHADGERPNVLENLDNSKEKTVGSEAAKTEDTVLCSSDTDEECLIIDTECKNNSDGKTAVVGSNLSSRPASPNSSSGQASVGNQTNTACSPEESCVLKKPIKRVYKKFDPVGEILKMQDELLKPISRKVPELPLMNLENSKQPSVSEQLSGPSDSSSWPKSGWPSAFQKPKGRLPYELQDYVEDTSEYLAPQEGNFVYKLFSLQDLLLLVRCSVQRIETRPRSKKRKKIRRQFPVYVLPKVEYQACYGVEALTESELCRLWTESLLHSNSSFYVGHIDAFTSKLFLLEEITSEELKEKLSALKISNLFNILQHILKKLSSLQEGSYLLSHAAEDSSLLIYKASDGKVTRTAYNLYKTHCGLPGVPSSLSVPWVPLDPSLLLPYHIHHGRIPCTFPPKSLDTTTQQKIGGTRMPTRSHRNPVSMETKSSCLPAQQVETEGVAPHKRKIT
UniProt Q75N03: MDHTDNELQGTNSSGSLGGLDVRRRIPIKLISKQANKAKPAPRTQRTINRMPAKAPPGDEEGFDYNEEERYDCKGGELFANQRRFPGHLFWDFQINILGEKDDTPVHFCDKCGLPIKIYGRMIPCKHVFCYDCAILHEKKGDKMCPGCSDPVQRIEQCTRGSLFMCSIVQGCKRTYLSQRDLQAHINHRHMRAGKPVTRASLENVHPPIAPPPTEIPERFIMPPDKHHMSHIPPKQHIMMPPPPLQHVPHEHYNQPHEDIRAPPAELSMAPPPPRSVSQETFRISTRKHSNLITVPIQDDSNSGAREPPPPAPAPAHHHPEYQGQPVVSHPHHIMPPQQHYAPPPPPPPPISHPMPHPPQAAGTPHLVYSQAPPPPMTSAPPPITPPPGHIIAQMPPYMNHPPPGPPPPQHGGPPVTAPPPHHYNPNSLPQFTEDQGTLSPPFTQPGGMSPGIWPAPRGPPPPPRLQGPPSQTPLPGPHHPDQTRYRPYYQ
UniProt Q6DKK2: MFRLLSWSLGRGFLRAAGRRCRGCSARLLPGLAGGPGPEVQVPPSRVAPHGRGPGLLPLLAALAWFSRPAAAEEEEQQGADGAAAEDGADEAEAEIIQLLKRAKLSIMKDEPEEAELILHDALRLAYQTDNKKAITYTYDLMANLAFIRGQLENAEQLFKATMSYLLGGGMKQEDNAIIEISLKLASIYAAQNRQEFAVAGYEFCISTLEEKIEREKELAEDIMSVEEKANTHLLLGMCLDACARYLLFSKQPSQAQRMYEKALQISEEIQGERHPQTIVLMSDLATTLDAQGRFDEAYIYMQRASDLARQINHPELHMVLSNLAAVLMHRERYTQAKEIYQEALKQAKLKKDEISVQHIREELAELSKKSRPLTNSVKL
UniProt Q7Z392: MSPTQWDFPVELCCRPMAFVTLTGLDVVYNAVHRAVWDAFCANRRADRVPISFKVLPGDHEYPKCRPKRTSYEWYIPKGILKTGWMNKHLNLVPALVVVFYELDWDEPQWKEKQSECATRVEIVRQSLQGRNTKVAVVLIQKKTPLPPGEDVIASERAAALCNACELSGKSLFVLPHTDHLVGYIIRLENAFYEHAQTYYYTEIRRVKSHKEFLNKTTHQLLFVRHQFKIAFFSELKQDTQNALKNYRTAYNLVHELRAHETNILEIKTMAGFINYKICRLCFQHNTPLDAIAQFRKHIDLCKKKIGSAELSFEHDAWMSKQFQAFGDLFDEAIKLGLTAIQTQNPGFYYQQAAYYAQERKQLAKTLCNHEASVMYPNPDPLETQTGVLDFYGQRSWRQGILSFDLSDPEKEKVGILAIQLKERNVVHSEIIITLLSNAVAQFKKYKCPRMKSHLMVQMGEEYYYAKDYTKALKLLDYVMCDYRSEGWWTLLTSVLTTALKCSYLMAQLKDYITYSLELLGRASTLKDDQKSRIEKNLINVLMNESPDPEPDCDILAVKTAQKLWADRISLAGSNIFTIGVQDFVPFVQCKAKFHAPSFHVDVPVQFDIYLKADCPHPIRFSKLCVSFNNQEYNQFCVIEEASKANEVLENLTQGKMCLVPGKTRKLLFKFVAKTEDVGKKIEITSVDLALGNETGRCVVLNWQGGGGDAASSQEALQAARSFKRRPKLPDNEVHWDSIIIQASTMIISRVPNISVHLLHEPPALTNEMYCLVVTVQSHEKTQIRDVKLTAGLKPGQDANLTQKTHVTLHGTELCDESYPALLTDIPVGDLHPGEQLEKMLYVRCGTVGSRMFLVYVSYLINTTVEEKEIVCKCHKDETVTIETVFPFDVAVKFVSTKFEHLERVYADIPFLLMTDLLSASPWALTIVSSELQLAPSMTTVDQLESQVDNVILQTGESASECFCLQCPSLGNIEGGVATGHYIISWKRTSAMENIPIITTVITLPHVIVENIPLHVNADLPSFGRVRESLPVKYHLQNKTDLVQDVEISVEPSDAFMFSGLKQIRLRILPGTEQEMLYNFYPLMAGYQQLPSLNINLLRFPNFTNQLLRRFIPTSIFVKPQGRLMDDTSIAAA
UniProt Q8IWE5: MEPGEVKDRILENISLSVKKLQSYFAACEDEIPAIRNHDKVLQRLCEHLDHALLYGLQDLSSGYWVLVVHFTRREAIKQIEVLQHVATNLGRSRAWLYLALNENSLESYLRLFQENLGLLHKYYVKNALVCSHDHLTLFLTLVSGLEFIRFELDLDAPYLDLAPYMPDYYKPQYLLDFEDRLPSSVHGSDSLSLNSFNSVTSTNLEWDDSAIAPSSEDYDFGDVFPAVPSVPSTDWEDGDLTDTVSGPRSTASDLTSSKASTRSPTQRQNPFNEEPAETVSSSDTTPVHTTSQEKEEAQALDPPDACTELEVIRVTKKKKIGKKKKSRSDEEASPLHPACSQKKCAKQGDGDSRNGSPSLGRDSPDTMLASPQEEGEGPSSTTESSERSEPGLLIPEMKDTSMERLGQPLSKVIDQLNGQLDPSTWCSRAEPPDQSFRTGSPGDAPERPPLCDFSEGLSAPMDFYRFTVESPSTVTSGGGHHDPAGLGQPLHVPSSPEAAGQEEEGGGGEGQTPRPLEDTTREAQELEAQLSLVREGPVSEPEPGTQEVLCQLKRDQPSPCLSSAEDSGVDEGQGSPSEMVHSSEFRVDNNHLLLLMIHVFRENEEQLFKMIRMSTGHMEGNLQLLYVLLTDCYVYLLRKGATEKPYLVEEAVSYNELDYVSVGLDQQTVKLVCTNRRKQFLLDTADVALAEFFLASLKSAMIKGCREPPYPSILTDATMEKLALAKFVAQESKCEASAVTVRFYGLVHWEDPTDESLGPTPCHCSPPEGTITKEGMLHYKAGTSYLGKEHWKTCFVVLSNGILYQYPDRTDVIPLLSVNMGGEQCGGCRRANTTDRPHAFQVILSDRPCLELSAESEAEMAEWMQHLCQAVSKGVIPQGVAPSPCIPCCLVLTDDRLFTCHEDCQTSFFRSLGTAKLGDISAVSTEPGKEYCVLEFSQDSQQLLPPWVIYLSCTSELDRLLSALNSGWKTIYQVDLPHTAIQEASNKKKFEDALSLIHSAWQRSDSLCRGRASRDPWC
UniProt Q6JBY9, whole entry: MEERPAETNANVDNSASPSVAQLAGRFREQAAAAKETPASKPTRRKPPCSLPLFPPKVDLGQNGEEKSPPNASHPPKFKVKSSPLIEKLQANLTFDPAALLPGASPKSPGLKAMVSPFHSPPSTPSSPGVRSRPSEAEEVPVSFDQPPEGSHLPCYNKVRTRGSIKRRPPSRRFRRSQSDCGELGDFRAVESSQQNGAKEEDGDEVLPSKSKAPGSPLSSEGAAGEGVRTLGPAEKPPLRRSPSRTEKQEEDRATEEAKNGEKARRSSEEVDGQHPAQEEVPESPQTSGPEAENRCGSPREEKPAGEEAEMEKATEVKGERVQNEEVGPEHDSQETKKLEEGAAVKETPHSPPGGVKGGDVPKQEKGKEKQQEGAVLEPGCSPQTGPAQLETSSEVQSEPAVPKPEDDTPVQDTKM
UniProt Q6DHV7: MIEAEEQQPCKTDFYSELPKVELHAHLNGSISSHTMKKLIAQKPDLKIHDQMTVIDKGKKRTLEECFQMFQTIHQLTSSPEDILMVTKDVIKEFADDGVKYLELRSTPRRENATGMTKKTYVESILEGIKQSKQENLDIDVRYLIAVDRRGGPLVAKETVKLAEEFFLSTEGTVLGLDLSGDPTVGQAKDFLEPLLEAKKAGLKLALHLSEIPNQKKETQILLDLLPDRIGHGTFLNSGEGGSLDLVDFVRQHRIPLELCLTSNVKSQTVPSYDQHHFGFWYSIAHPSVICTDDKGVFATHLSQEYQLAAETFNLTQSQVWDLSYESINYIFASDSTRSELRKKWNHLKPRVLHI
UniProt Q6IA69: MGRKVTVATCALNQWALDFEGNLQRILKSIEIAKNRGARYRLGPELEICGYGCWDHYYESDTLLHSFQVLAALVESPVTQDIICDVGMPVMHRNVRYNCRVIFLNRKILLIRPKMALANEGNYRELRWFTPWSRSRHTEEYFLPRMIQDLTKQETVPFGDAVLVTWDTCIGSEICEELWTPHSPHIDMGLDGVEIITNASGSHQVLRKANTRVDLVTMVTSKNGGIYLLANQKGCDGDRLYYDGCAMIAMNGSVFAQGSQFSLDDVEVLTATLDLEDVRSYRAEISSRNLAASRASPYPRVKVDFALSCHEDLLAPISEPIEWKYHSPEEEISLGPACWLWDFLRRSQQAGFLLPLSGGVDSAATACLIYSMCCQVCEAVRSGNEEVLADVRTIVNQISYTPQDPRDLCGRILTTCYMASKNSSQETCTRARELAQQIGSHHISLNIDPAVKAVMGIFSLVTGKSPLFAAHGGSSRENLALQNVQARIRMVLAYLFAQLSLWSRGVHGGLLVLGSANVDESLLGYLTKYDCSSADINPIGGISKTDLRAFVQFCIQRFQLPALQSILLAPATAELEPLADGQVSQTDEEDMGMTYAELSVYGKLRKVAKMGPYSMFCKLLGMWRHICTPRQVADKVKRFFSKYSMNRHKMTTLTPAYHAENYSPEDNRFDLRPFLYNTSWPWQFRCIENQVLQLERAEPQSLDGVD
UniProt Q6P4A7: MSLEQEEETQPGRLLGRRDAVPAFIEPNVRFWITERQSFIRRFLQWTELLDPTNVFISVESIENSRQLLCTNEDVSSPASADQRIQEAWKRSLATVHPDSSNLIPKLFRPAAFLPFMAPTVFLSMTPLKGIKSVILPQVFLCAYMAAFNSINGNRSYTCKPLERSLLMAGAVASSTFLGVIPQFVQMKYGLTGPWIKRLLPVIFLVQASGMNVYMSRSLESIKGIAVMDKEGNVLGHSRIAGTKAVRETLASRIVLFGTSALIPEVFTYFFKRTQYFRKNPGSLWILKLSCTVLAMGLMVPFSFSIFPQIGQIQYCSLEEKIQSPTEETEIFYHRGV
UniProt Q6IN84: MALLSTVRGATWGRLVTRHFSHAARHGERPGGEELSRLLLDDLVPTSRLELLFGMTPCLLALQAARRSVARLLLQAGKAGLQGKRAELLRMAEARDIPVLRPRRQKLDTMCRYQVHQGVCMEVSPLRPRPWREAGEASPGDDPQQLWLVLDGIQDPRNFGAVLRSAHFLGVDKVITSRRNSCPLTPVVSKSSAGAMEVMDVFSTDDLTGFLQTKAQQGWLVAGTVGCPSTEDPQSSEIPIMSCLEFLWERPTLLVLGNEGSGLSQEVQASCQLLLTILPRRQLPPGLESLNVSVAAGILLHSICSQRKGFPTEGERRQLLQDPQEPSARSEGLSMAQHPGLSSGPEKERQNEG

Target	NP40-soluble protein abundance (concentration: 1mM)	NP40-soluble protein abundance (concentration: 2mM)	NP40-soluble protein abundance (concentration: 4mM)	NP40-soluble protein abundance (concentration: 6mM)	NP40-soluble protein abundance (concentration: 8mM)	NP40-soluble protein abundance (concentration: 10mM)
UniProt Q712K3	1.04 ± 0.051	1.09 ± 0.045	0.99 ± 0.052	0.992 ± 0.036	0.968 ± 0.04	1 ± 0.087
WDR73 (UniProt Q6P4I2)	0.99 ± 0.022	0.946 ± 0.014	0.979 ± 0.013	0.944 ± 0.018	0.959 ± 0.06	0.927 ± 0.019
UniProt Q6PI47	0.873 ± 0.06	0.905 ± 0.046	0.947 ± 0.051	1 ± 0.023	1.08 ± 0.047	1.1 ± 0.064
UniProt Q6NS38 and related entries	1.01 ± 0.022	1.038 ± 0.0089	1.03 ± 0.013	1.05 ± 0.032	1.04 ± 0.021	1.03 ± 0.028
UniProt Q659A1	1.03 ± 0.039	1.04 ± 0.043	1.04 ± 0.044	1.03 ± 0.011	1.03 ± 0.034	1.06 ± 0.087
DHRS11 (UniProt Q6UWP2)	1.03 ± 0.026	1.01 ± 0.031	1.042 ± 0.0067	1.05 ± 0.014	1.05 ± 0.026	1.05 ± 0.041
DYM (UniProt Q7RTS9)	1 ± 0.013	0.972 ± 0.02	0.994 ± 0.0098	0.9857 ± 0.0095	0.997 ± 0.018	0.9736 ± 0.0051
AAGAB (UniProt Q6PD74)	1.07 ± 0.052	1.11 ± 0.11	1.03 ± 0.05	1.02 ± 0.016	1.04 ± 0.021	1.01 ± 0.017
ANKRD54 (UniProt Q6NXT1)	0.994 ± 0.037	1.01 ± 0.066	0.991 ± 0.029	0.99 ± 0.028	0.942 ± 0.057	0.98 ± 0.042
CBLL1 (UniProt Q75N03)	1 ± 0.01	1.04 ± 0.022	1.03 ± 0.045	0.995 ± 0.015	0.976 ± 0.014	0.985 ± 0.016
PAXIP1 (UniProt Q6ZW49)	1.02 ± 0.046	1.01 ± 0.054	1.02 ± 0.046	1.02 ± 0.016	1.01 ± 0.025	1 ± 0.053
UniProt Q7Z3U7 and related entries	1.01 ± 0.094	1.02 ± 0.053	0.99 ± 0.038	0.923 ± 0.046	0.937 ± 0.039	0.947 ± 0.033
TTC19 (UniProt Q6DKK2)	0.987 ± 0.058	1.02 ± 0.036	0.98 ± 0.086	0.948 ± 0.056	0.957 ± 0.015	0.88 ± 0.065
UniProt Q5VWN6	1.013 ± 0.01	1.05 ± 0.041	1.02 ± 0.016	1 ± 0.025	0.976 ± 0.026	1.03 ± 0.015
EPM2AIP1 (UniProt Q7L775)	0.961 ± 0.015	0.94 ± 0.032	0.96 ± 0.025	0.947 ± 0.028	0.9617 ± 0.0055	0.958 ± 0.041
UniProt Q7Z392	0.985 ± 0.027	0.949 ± 0.077	0.996 ± 0.023	0.932 ± 0.012	0.96 ± 0.035	0.925 ± 0.038
UniProt Q684P5-2|Q684P5-3|Q684P5	1 ± 0.035	1 ± 0.024	0.997 ± 0.051	0.977 ± 0.029	0.963 ± 0.048	0.968 ± 0.026
Q5VVD7 and related entries (UniProt Q8IWE5)	1.01 ± 0.033	0.992 ± 0.04	1.01 ± 0.051	0.999 ± 0.014	0.971 ± 0.05	0.972 ± 0.072

Target	NP40-soluble protein abundance (concentration: 1mM)	NP40-soluble protein abundance (concentration: 2mM)	NP40-soluble protein abundance (concentration: 4mM)	NP40-soluble protein abundance (concentration: 6mM)	NP40-soluble protein abundance (concentration: 8mM)	NP40-soluble protein abundance (concentration: 10mM)
UniProt Q66K74 and related entries	1.04 ± 0.024	1.06 ± 0.034	1.05 ± 0.027	1.03 ± 0.022	1.01 ± 0.045	1.02 ± 0.032
RPL7L1 (UniProt Q6DKI1)	0.987 ± 0.028	0.989 ± 0.01	0.994 ± 0.014	0.963 ± 0.045	0.896 ± 0.024	0.9879 ± 0.0017
RCSD1 (UniProt Q6JBY9)	1.01 ± 0.04	1.06 ± 0.066	0.974 ± 0.048	0.943 ± 0.059	0.907 ± 0.017	0.897 ± 0.032
TMED8 (UniProt Q6PL24)	1.05 ± 0.049	1.06 ± 0.097	1.06 ± 0.055	1.03 ± 0.044	1.06 ± 0.081	1.04 ± 0.049
UniProt Q6DHV7 and related entries	0.9866 ± 0.0096	0.9803 ± 0.0059	0.9821 ± 0.0043	1.03 ± 0.031	1.0125 ± 0.0007	1.02 ± 0.046
UniProt Q709C8 and related entries	0.955 ± 0.016	0.907 ± 0.065	0.931 ± 0.026	0.891 ± 0.025	0.894 ± 0.016	0.864 ± 0.028
UniProt Q5VSL9	0.982 ± 0.051	0.9935 ± 0.0092	0.978 ± 0.026	0.975 ± 0.015	0.95 ± 0.011	0.987 ± 0.031
NADSYN1 (UniProt Q6IA69)	0.994 ± 0.023	0.958 ± 0.039	0.979 ± 0.012	0.968 ± 0.035	0.99 ± 0.04	0.984 ± 0.038
UniProt Q6P4A7 and related entries	0.9841 ± 0.0091	0.9884 ± 0.0064	0.98 ± 0.02	0.995 ± 0.0066	0.991 ± 0.026	0.983 ± 0.016
UniProt Q6YP21 and related entries	0.997 ± 0.011	0.914 ± 0.091	0.9957 ± 0.0071	0.987 ± 0.071	1.04 ± 0.074	1.02 ± 0.063
REEP3 (UniProt Q6NUK4)	1.01 ± 0.039	1.01 ± 0.022	1.02 ± 0.028	1.02 ± 0.029	1.04 ± 0.017	1.01 ± 0.012
UniProt Q6NYC1 and related entries	1 ± 0.031	0.991 ± 0.01	0.999 ± 0.011	1 ± 0.03	1.02 ± 0.033	1.02 ± 0.021
UniProt Q7Z333 and related entries	0.982 ± 0.026	0.944 ± 0.018	1 ± 0.076	0.9718 ± 0.0015	0.958 ± 0.014	0.948 ± 0.017
UniProt Q66K14-2|Q66K14	0.973 ± 0.029	1 ± 0.036	0.9859 ± 0.0023	0.933 ± 0.011	0.9428 ± 0.0082	0.9259 ± 0.0089
MRM1 (UniProt Q6IN84)	0.995 ± 0.028	1.01 ± 0.014	1.03 ± 0.016	1.06 ± 0.02	1.09 ± 0.035	1.14 ± 0.015
UniProt Q7Z3D6-2	1.04 ± 0.017	1.04 ± 0.027	1.03 ± 0.03	0.999 ± 0.023	1.01 ± 0.024	1.01 ± 0.031
UniProt Q6ZRS2 and related entries	1.02 ± 0.05	1.14 ± 0.037	1.14 ± 0.047	1.19 ± 0.11	1.16 ± 0.086	1.25 ± 0.1

Some entries already given, showing only NP40-soluble protein abundance (concentration: 1mM), NP40-soluble protein abundance (concentration: 4mM) and NP40-soluble protein abundance (concentration: 8mM).
Target	NP40-soluble protein abundance (concentration: 1mM)	NP40-soluble protein abundance (concentration: 4mM)	NP40-soluble protein abundance (concentration: 8mM)
UniProt Q5VSL9	0.982 ± 0.051	0.978 ± 0.026	0.95 ± 0.011
NADSYN1 (UniProt Q6IA69)	0.994 ± 0.023	0.979 ± 0.012	0.99 ± 0.04

Source: the supplement of paper PMC6411743
